In patent US20030216293A1, “Use of composition comprising at least one substance within the group GnRH-analogues for treatment of obsessive -compulsive disorder (OCD)” (priority 1998, published 2003):
At least one structure is not confirmed: it was looked up by name or label, or the drawing left a doubt.

How the values were obtained:
[1] = test system: patient with a severe form of OCD; experiment: Case study: treatment of a patient with a severe form of OCD; type: in vivo, human; details: one patient; given as anti-androgenic treatment
Experimental: The GnRH-analogue triptorelin is available in a pharmaceutical preparation (Decapeptyl® Depot). In the use of this preparation, an injection is administered containing triptorelin embonate in a dose corresponding to 3.75 mg triptorelin. Injections with this dose are given intramuscularly. They should be repeated every fourth week from the first injection.
A detailed case study of the treatment of a patient with a severe form of OCD is disclosed in the following, as supporting evidence of the effect of the method.
A then person was referred to a psychiatric specialist clinic from another qualified psychiatrist for evaluation and treatment of a severe condition of OCD.
The situation when the patient came to the clinic was that they had sickness pension since more than ten years. They lived alone in a small apartment which they hardly ever left. Obsessions and compulsive rituals occupied most of their time. They repeated against their will meaningless strings of words silently during several hours every day. They felt they had to read the newspaper according to certain ritual patterns; if they did anything wrong, they had to start again from the beginning. Sometimes, it took them the whole day to read the newspaper. […] Among other things, they placed their books so that the covers were strictly oriented along north-south lines. […]

[2] = test system: symptoms of androgenic hyperactivity; experiment: Case study: treatment against the patient's symptoms of androgenic hyperactivity; type: in vivo, human; details: one patient (male pattern baldness, sebaceous skin, acne, sexual drive)
Experimental: An endocrinological investigation was performed, based upon their symptoms of androgenic hyperactivity.

Structure (SMILES): CC(C)C(=O)Nc1ccc([N+](=O)[O-])c(C(F)(F)F)c1 [flutamide]
- effect on OCD [1]: without any obvious effect
- effect on symptoms of androgenic hyperactivity [2]: without any significant effects
